{"source": "PubChem BioAssay AID504774 | Drosophila RNAi Screening Center, 2011", "aim": "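Fly genes whose loss alters survival after alkylation damage to DNA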 (primary screen)", "cells": "Drosophila Kc167 cells", "reagent": "long dsRNA against Drosophila genes, about 0.25 µg dsRNA per well", "time to read-out": "about 6 days: 3 days knock-down, then 3 days with or without MMS", "conditions": "methyl methanesulphonate 0.004% (w/v) for 3 days after knock-down", "read-out": "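ATP-dependent luminescence as a measure of live cells in MMS-exposed wells, quantile normalised within each plate, with replicate values also given as a mean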", "direction": "mean viability with MMS and viability with MMS: higher = more surviving cells after MMS", "note": "The deposit covers about 23,000 reagents; this is a random part of those that have a named target and a result. 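Values are quantile-normalised luminescence on an arbitrary scale; higher means more cells surviving MMS.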 A plus sign joins genes that one reagent is predicted to hit. Not all columns of the deposit are shown."}
{"Target gene": "dre4", "amplicon": "DRSC08714", "mean viability with MMS": 3.43e6, "viability with MMS, replicate 1": 3.91e6}
{"Target gene": "CG42714", "amplicon": "DRSC08798", "mean viability with MMS": 3.51e6, "viability with MMS, replicate 1": 4.11e6}
{"Target gene": "CG14618", "amplicon": "DRSC20631", "mean viability with MMS": 3.55e6, "viability with MMS, replicate 1": 4.07e6}
{"Target gene": "Fs(2)Ket", "amplicon": "DRSC03328", "mean viability with MMS": 2.35e6, "viability with MMS, replicate 1": 3.17e6}
{"Target gene": "CG1889", "amplicon": "DRSC18195", "mean viability with MMS": 3.54e6, "viability with MMS, replicate 1": 4.05e6}
{"Target gene": "CG31924", "amplicon": "DRSC00689", "mean viability with MMS": 3.47e6, "viability with MMS, replicate 1": 3.89e6}
{"Target gene": "CG33263", "amplicon": "DRSC10108", "mean viability with MMS": 3.49e6, "viability with MMS, replicate 1": 3.92e6}
{"Target gene": "Elo68alpha", "amplicon": "DRSC22725", "mean viability with MMS": 3.67e6, "viability with MMS, replicate 1": 4.11e6}
{"Target gene": "CG17191", "amplicon": "DRSC15185", "mean viability with MMS": 3.58e6, "viability with MMS, replicate 1": 4.22e6}
{"Target gene": "MetRS", "amplicon": "DRSC22533", "mean viability with MMS": 3.26e6, "viability with MMS, replicate 1": 3.86e6}
{"Target gene": "CG4783", "amplicon": "DRSC15644", "mean viability with MMS": 2.07e6, "viability with MMS, replicate 1": 4.17e6}
{"Target gene": "CG17562", "amplicon": "DRSC15243", "mean viability with MMS": 3.54e6, "viability with MMS, replicate 1": 4.06e6}
{"Target gene": "Svil", "amplicon": "DRSC07981", "mean viability with MMS": 3.68e6, "viability with MMS, replicate 1": 3.88e6}
{"Target gene": "Svil", "amplicon": "DRSC08296", "mean viability with MMS": 3.54e6, "viability with MMS, replicate 1": 3.99e6}
{"Target gene": "Svil", "amplicon": "DRSC08332", "mean viability with MMS": 3.59e6, "viability with MMS, replicate 1": 4.08e6}
{"Target gene": "Svil", "amplicon": "DRSC08333", "mean viability with MMS": 2.84e6, "viability with MMS, replicate 1": 3.55e6}
{"Target gene": "Svil", "amplicon": "DRSC08494", "mean viability with MMS": 3.59e6, "viability with MMS, replicate 1": 4.05e6}
{"Target gene": "CG33964 + CG13175", "amplicon": "DRSC06300", "mean viability with MMS": 3.50e6, "viability with MMS, replicate 1": 3.88e6}
{"Target gene": "CG33964 + CG13175", "amplicon": "DRSC06301", "mean viability with MMS": 3.43e6, "viability with MMS, replicate 1": 3.98e6}
{"Target gene": "CG33964 + CG13175", "amplicon": "DRSC07184", "mean viability with MMS": 3.52e6, "viability with MMS, replicate 1": 4.02e6}
{"Target gene": "CG17127", "amplicon": "DRSC02581", "mean viability with MMS": 3.62e6, "viability with MMS, replicate 1": 4.25e6}
{"Target gene": "RNaseZ", "amplicon": "DRSC06845", "mean viability with MMS": 3.51e6, "viability with MMS, replicate 1": 4.01e6}
{"Target gene": "CG32260", "amplicon": "DRSC08084", "mean viability with MMS": 3.67e6, "viability with MMS, replicate 1": 4.27e6}
{"Target gene": "CG13928", "amplicon": "DRSC08397", "mean viability with MMS": 3.60e6, "viability with MMS, replicate 1": 4.19e6}
{"Target gene": "Srp19", "amplicon": "DRSC11288", "mean viability with MMS": 3.65e6, "viability with MMS, replicate 1": 4.11e6}

An excerpt from above, reduced to “mean viability with MMS”:
Svil [DRSC07981]	3.68e6
Svil [DRSC08296]	3.54e6
Svil [DRSC08332]	3.59e6
Svil [DRSC08333]	2.84e6
Svil [DRSC08494]	3.59e6
CG33964 + CG13175 [DRSC06300]	3.50e6
CG33964 + CG13175 [DRSC06301]	3.43e6

Further results follow:
{"Target gene": "CheB42b", "amplicon": "DRSC22878", "mean viability with MMS": 3.37e6, "viability with MMS, replicate 1": 3.89e6}
{"Target gene": "dikar", "amplicon": "DRSC09699", "mean viability with MMS": 3.49e6, "viability with MMS, replicate 1": 3.97e6}
{"Target gene": "dikar", "amplicon": "DRSC22261", "mean viability with MMS": 3.36e6, "viability with MMS, replicate 1": 3.89e6}
{"Target gene": "Mst57Da", "amplicon": "DRSC16744", "mean viability with MMS": 3.40e6, "viability with MMS, replicate 1": 3.76e6}
{"Target gene": "Aldh-III", "amplicon": "DRSC06047", "mean viability with MMS": 2.91e6, "viability with MMS, replicate 1": 2.17e6}
{"Target gene": "CG42266", "amplicon": "DRSC21577", "mean viability with MMS": 3.47e6, "viability with MMS, replicate 1": 4.00e6}
{"Target gene": "CG42266", "amplicon": "DRSC21957", "mean viability with MMS": 3.49e6, "viability with MMS, replicate 1": 3.97e6}
{"Target gene": "CG34310", "amplicon": "DRSC00943", "mean viability with MMS": 3.64e6, "viability with MMS, replicate 1": 3.96e6}
{"Target gene": "fbp", "amplicon": "DRSC02077", "mean viability with MMS": 3.71e6, "viability with MMS, replicate 1": 4.08e6}
{"Target gene": "CG14195", "amplicon": "DRSC19550", "mean viability with MMS": 3.48e6, "viability with MMS, replicate 1": 3.93e6}
{"Target gene": "Cdk12", "amplicon": "DRSC11836", "mean viability with MMS": 2.98e6, "viability with MMS, replicate 1": 3.61e6}
{"Target gene": "Cdk12", "amplicon": "DRSC23323", "mean viability with MMS": 2.21e6, "viability with MMS, replicate 1": 2.04e6}
{"Target gene": "CG5003", "amplicon": "DRSC15694", "mean viability with MMS": 3.58e6, "viability with MMS, replicate 1": 3.99e6}
{"Target gene": "CG33099", "amplicon": "DRSC15774", "mean viability with MMS": 3.61e6, "viability with MMS, replicate 1": 4.14e6}
{"Target gene": "Oatp26F", "amplicon": "DRSC02149", "mean viability with MMS": 3.53e6, "viability with MMS, replicate 1": 3.93e6}
{"Target gene": "Oatp26F", "amplicon": "DRSC02272", "mean viability with MMS": 3.54e6, "viability with MMS, replicate 1": 3.92e6}
{"Target gene": "Oatp26F", "amplicon": "DRSC02695", "mean viability with MMS": 3.60e6, "viability with MMS, replicate 1": 4.05e6}
{"Target gene": "ldd", "amplicon": "DRSC20558", "mean viability with MMS": 3.52e6, "viability with MMS, replicate 1": 3.92e6}
{"Target gene": "ldd", "amplicon": "DRSC22696", "mean viability with MMS": 3.63e6, "viability with MMS, replicate 1": 4.09e6}
{"Target gene": "Zdhhc8", "amplicon": "DRSC18044", "mean viability with MMS": 3.37e6, "viability with MMS, replicate 1": 3.81e6}
{"Target gene": "Zdhhc8", "amplicon": "DRSC18122", "mean viability with MMS": 3.74e6, "viability with MMS, replicate 1": 4.26e6}
